PubChem BioAssay AID504467 (National Center for Advancing Translational Sciences (NCATS), 2011)
Out of some 330,000 compounds screened, about 7,700 (2.3%) were called active. The inconclusive results got no clear call from the source; some entries with a clear call stand among them for comparison. The call rests on the fitted dose curve; in most records, active means well fitted inhibition curve with a large enough effect; inconclusive means small, poorly fitted or top-dose-only effect, or effect the other way; inactive means flat fitted curve, though single readings scatter. A potency beside an inconclusive call is a rough fit, not a confirmed value.

experiment: qHTS screen for small molecules that inhibit ELG1-dependent DNA repair in human embryonic kidney (HEK293T) cells expressing luciferase-tagged ELG1; settings: HEK293T ELG1-luciferase reporter, luminescence, 16 h, DNA damage induced by 5-fluorouridine; series mostly up to 46.1 µM; further: nearly all actives have a fitted effect of over 55% in size
Summary of the method: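 Luminescence from the luciferase reporter, measured 30 min after ONE-Glo reagent at room temperature, was the read-out. Beforehand, 2,000 cells per well were exposed for 16 hr at 37 °C to 5-fluorouridine together with compound or vehicle.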
Potency means the concentration at half of the fitted maximal effect.

| Compound | Potency |
| --- | --- |
| Cc1nc(SCC(=O)NC(C)(C)C)c2c(-c3cccs3)csc2n1 | inconclusive: 29.1 µM [inhibitor, single point] |
| CCOC(=O)c1ccc(NC(=O)Cn2c(-c3nonc3N)nc3ccccc32)cc1 | inconclusive: 29.1 µM [activator, single point] |
| Cc1ccc2nc(-c3ccc(NC(=O)CN(C)S(=O)(=O)c4ccccc4)cc3)sc2c1 | inconclusive: 2.06 µM [activator, full curve] |
| O=C(NC(=S)NC1CCCCC1)c1ccccc1[N+](=O)[O-] | inconclusive: 20.6 µM [activator, partial curve, poor fit] |
| O=C(Cn1cnc2ccccc2c1=O)OCCCCN1C(=O)c2ccccc2C1=O | inconclusive: 29.1 µM [inhibitor, single point] |
| CC(C)Oc1ccc(CC(=O)NNC(=S)Nc2ccccc2)cc1 | inconclusive: 23.1 µM [inhibitor, single point] |
| Nc1c(C(=O)NCCN2CCOCC2)c2nc3ccccc3nc2n1-c1ccc2c(c1)OCO2 | inconclusive: 20.6 µM [inhibitor, single point] |
| CN(CC(=O)Nc1cccc(F)c1)C(=O)c1ccccc1CCc1ccccc1 | inconclusive: 29.1 µM [inhibitor, partial curve, poor fit] |
| COc1ccc(OC)c(NC(=O)CSc2nc3n[nH]c(C)c3c(=N)n2-c2cccc(Cl)c2C)c1 | inconclusive: 14.6 µM [inhibitor, partial curve, poor fit] |
| Cc1ccc(C)c(-n2c(SCC(=O)O)nc3sc4c(c3c2=O)CCCC4)c1 | inconclusive: 5.8 µM [inhibitor, partial curve, poor fit] |
| COc1ccc(S(=O)(=O)N2CCN(CCOc3ccc(Br)cc3)CC2)cc1OC | inconclusive: 5.17 µM [inhibitor, full curve, poor fit] |
| O=C(NCCc1ccccc1)C(c1ccccc1F)N(C(=O)c1csnn1)C1CC1 (stereo not given) | inactive |
| COc1ccccc1C(C)NC(=O)c1ccc(S(=O)(=O)NCc2ccco2)cc1 (stereo not given) | inactive |
| COc1ccccc1OCCCOc1ccc(C)cc1Br | inconclusive: 16.4 µM [activator, partial curve] |
| COc1ccc(S(=O)(=O)N2CCC(n3cnc4cc(C(F)(F)F)ccc43)CC2)cc1 | inconclusive: 29.1 µM [inhibitor, single point] |
| O=C(NCCc1cccs1)C1CC(c2c(Cl)cccc2Cl)=NO1 (stereo not given) | inconclusive: 29.1 µM [inhibitor, single point] |
| Cc1onc(-c2c(F)cccc2Cl)c1C(=O)NC(C)c1ccccc1 (stereo not given) | inactive |
| OC1(c2ccccc2F)CCN(Cc2nnc(-c3ccccc3)o2)CC1 | inconclusive: 23.1 µM [inhibitor, single point] |
| CC1(C)Cc2ccccc2C(/C(=N\Nc2cccc(Cl)c2)C(N)=O)=N1 | active: 16.4 µM |
| COc1cccc(-c2ncc3ccccc3c2COC(=O)N(C)C)c1 | inactive |
| Cc1ccc(C2C3=C(NCCN=C3c3ccccc3)C(=O)N2c2ccccc2)cc1 (stereo not given) | inconclusive: 0.0517 µM [inhibitor, full curve, poor fit] |
| O=C(Nc1ccc(F)cc1F)N1CCCN(c2ccc(C(F)(F)F)cn2)CC1 | inconclusive: 8.2 µM [inhibitor, partial curve] |
| CN1CCN(C(=O)c2ccc(N3CCCC3=O)cc2)CC1 | inactive |

| Compound | Potency |
| --- | --- |
| Cc1nc(N2CCN(c3ccccn3)CC2)c2c(C)c(C(=O)Nc3ccccc3F)sc2n1 | active: 9.2 µM |
| COc1cccc(CC2(CO)CCN(C(=O)NCCc3ccccc3)CC2)c1 | inconclusive: 23.1 µM [inhibitor, single point] |
| Cc1ccc(Cl)c(NC(=O)COC(=O)c2cc[n+]([O-])cc2)c1Cl | inactive |
| CC(=O)C1=C(O)C(=O)N(c2ccc(O)cc2)C1c1cccc(F)c1 (stereo not given) | inconclusive: 18.3 µM [activator, single point] |
| C/C(=N\NC(=O)Cc1ccccc1Cl)c1cccnc1 | inactive |
| CCOC(=O)c1c(-c2ccccc2)nc2c(C)cccn12 | inactive |
| COc1ccc(CNC(=O)CNC(C)c2ccc(F)cc2)cc1 (stereo not given) | inactive |
| O=C(CSc1nccc(=O)[nH]1)c1ccccc1Br | inactive |
| OC(CNCCc1ccc(Cl)cc1Cl)COc1ccccc1 (stereo not given) | inactive |
| CCc1cc(-c2n[nH]c(=S)n2CC)cs1 | inactive |
| COC(=O)[C@]1(CC(C)C)N[C@H](c2ccc(-c3ccc(Cl)c(Cl)c3)cc2)[C@@H]2C(=O)N(C)C(=O)[C@@H]21 | inactive |
| CCOC(=O)N1CCN(C(=O)CN(Cc2ccc(Cl)cc2)S(=O)(=O)c2ccc(C)cc2)CC1 | inconclusive: 18.4 µM [inhibitor, single point] |
| Nc1nc(SCC(=O)N2CCCc3ccccc32)[nH]c(=O)c1-c1ccccc1 | inconclusive: 20.6 µM [activator, single point] |
| COc1cc(NC(=O)c2cc(C)nc3ccccc23)cc(OC)c1 | inactive |
| CCOc1ccc(S(=O)(=O)NCc2ccc3c(c2)OCO3)cc1C(=O)O | inactive |
| COCCNC(=S)NC(=O)c1ccc(C(C)(C)C)cc1 | inconclusive: 29.1 µM [activator, single point] |
| COc1ccc(C(=O)Nn2c(SCC(=O)NC3CCCCC3)nc3ccccc3c2=O)cc1 | inconclusive: 0.291 µM [activator, partial curve] |
| CC/C(=N/NS(=O)(=O)c1ccc(Cl)cc1)c1ccc(O)cc1 | inactive |
| O=C(/C=C/c1ccccc1)NC(NC(=S)Nc1ccc(Cl)cc1Cl)C(Cl)(Cl)Cl (stereo not given) | inconclusive: 23.1 µM [inhibitor, partial curve, poor fit] |
| O=C(Nc1ccc2c(c1)OCCO2)c1cnn(-c2ccccc2)n1 | inconclusive: 14.6 µM [activator, partial curve, poor fit] |
| COC(=O)c1ccc2c(=O)n(CC3CCCO3)c(SCC(=O)Nc3ccccc3OC)nc2c1 (stereo not given) | inconclusive: 20.6 µM [inhibitor, single point] |
| O=C1c2ccccc2C(=O)N1CCc1ccccn1 | inconclusive: 20.6 µM [activator, partial curve, poor fit] |

Three structures from above, arranged by count of non-hydrogen atoms, ascending.

| Compound | Potency |
| --- | --- |
| CN1CCN(C(=O)c2ccc(N3CCCC3=O)cc2)CC1 | inactive |
| COc1ccccc1C(C)NC(=O)c1ccc(S(=O)(=O)NCc2ccco2)cc1 (stereo not given) | inactive |
| Nc1c(C(=O)NCCN2CCOCC2)c2nc3ccccc3nc2n1-c1ccc2c(c1)OCO2 | inconclusive: 20.6 µM [inhibitor, single point] |
